Assay results from patent US10960018B2, “Methods and compounds for stimulating read-through of premature termination codons” (The UAB Research Foundation, priority 2016, dated 2021).
For at least one compound, name, drawing or mass did not settle the structure.

Legend:
Format in all cases: cell-based, Rat
FRT G542X cells [1] = test: Transepithelial chloride conductance (TECC) assay in FRT G542X cells; conditions: 48 hours; escin 10 μM, VX-809 3 μM, G418 250 μg/ml
Description: (§1) Stably transfected FRT cells as described herein cells were seeded onto Costar 24-well […] permeable supports at a density of ˜2×10^6 cells/filter and maintained at 37° C. with 5% CO2. Transepithelial resistance was assessed using an epithelial voltmeter to ensure the formation of tight monolayers, as defined by resistance >6 kcm^2. During initial evaluation of agents, cells were treated with compounds (10 μM), vehicle control (0.3% DMSO), or positive control (250 μg/mL G418) for 48 hours before transepithelial conductance (Gt) was assessed; subsequent studies used other concentrations of compounds. […]
In the TECC assay, FRT G542X cells were treated with a single dose (10 μM) of each compound. […] During the assay the baseline conductance (Gt) was initially determined prior to the acute addition of forskolin (20 μM) and VX-770 (10 μM) to stimulate CFTR activity; the CFTR inhibitor, CFTRInh-172 (10 μM), was added to inhibit CFTR activity at the end of the assay. In these experiments, an increase in CFTR conductance indicates the compounds stimulated read-through of the PTC in the constructs tested and that the CFTR was functional. […]
A series of functional assays was performed to evaluate the efficacy of these lead compounds in greater detail. Using FRT G542X cells, the optimal dose of each compound in augmenting chloride conductance (FIG. 5A) was determined. […]

FRT QXN UGAC cells = test: Firefly luciferase reporter assay, UGAC construct; conditions: 300 to 500 μg/ml, 24 hours, dose-dependent, P<0.0001
FRT G542X cells [2] = test: Firefly luciferase reporter assay, G542X construct; conditions: 300 to 500 μg/ml, 24 hours, dose-dependent, P<0.0001
FRT W1282X cells = test: Transepithelial chloride conductance assay in FRT W1282X cells; conditions: 48 hours; escin 10 μM, VX-809 3 μM, G418 250 μg/ml
Description: as §1
As previously reported in the literature, the combination of CFTR correctors (such as VX-809) and CFTR potentiators (such as VX-770) act synergistically to improve CFTR function. […] During the assay the baseline conductance (Gt) was initially determined prior to the acute addition of forskolin (20 μM) and VX-770 (10 μM) to stimulate CFTR activity; the CFTR inhibitor, CFTRInh-172 (10 μM), was added to inhibit CFTR activity at the end of the assay. Enhancement of PTC read-through by the compounds of the present disclosure was determined by an increase in CFTR conductance. CFTR conductance also indicated the CFTR was functional as a result of the read-through of the PTC. […]
It has been reported that aminoglycosides interfere with the action read-through stimulating compound. […]

FRT Y122X cells = test: Transepithelial chloride conductance assay in FRT Y122X cells; conditions: 48 hours; escin 10 μM, VX-809 3 μM, G418 250 μg/ml

Compound: CN[C@@H]1[C@@H](O)[C@@H](O[C@@H]2[C@@H](O)[C@H](O[C@H]3O[C@H]([C@@H](C)O)[C@@H](O)[C@H](O)[C@H]3N)[C@@H](N)C[C@H]2N)OC[C@]1(C)O [G418, geneticin]
- CFTR conductance (FRT G542X cells [1]): significant stimulatory effects
- firefly luciferase activity compared to DMSO-treated vehicle (FRT QXN UGAC cells): significantly increased
- firefly luciferase activity compared to DMSO-treated vehicle (FRT G542X cells [2]): significantly increased
- CFTR conductance (FRT W1282X cells): significant stimulatory effects
- CFTR conductance (FRT Y122X cells): significant stimulatory effects
